Test results taken from the supplement of paper PMC4635364.
Where a name gives a salt, the structure may show the parent alone. Some of the results follow. Repeats in this data set agree poorly, so a single value says little.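 Human fetal ventral-midbrain neural progenitor line ReNCell VM, differentiated without mitogens. Images stained for doublecortin (early neurons) or tyrosine hydroxylase (dopaminergic neurons) were scored by blinded raters against untreated wells (0 = no change). Repeats and both raters were averaged, and compounds averaging 2 or higher were picked as hits for retesting.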

What follows are molecules tested on ReNCell VM (assay: dopaminergic neuron differentiation score (TH+ cell fraction vs untreated, manual image score) (score (0 to 3)); higher = more TH+ dopaminergic neuron differentiation). Details: library: LOPAC; 2 uM; 4 weeks; BDNF 10 ng/ml + GDNF 10 ng/ml.

Dopaminergic neuron differentiation score, inactive:
CC(N/C(=N\C#N)Nc1ccncc1)C(C)(C)C (stereo not drawn) [Pinacidil] 0
CN1CCN(CCCN2c3ccccc3Sc3ccc(Cl)cc32)CC1 [Prochlorperazine dimaleate] 0
O=C(O)c1cc(=O)c2ccccc2[nH]1 [Kynurenic acid] 1
CN1CC(=O)N=C1NC(=O)Nc1cccc(Cl)c1 [Fenobam] 0
O=C(O)c1cc(=O)c2c(Cl)cc(Cl)cc2[nH]1 [5,7-Dichlorokynurenic acid] 1
CC(C)NCC(O)c1ccc(O)c(O)c1 (single isomer, unassigned; (-)) [(-)-Isoproterenol hydrochloride] 0
COc1cc2c(cc1C(F)(F)F)N(C(=O)Nc1cc(F)cc(-c3cccnc3)c1)CC2 0
COc1ccc(Cl)cc1NC(=O)Nc1cc(C)nc2ccccc12 0
CC[N+](CC)(CC)CCOc1cccc(OCC[N+](CC)(CC)CC)c1OCC[N+](CC)(CC)CC [Gallamine triethiodide] 0
O=C(CCCN1CCC(O)(c2ccc(Cl)cc2)CC1)c1ccc(F)cc1 [Haloperidol] 0
CC(CCc1ccccc1)NCC(O)c1ccc(O)c(C(N)=O)c1 (stereo not drawn) [Labetalol hydrochloride] 0
Cc1cnc(C(=O)NCCc2ccc(S(=O)(=O)NC(=O)NC3CCCCC3)cc2)cn1 [Glipizide] 0
O=C(O)c1cccnc1C(=O)O [Quinolinic acid] 0

Looked up one by one from the list above:
Dopaminergic neuron differentiation score, inactive:
CC(CCc1ccccc1)NCC(O)c1ccc(O)c(C(N)=O)c1 (stereo not drawn) [Labetalol hydrochloride] 0
CC(C)NCC(O)c1ccc(O)c(O)c1 (single isomer, unassigned; (-)) [(-)-Isoproterenol hydrochloride] 0
